According to paper PMC4829694:
No constants are given. Whether binding was seen depends on the method and setting. In cells and extracts the contact can be indirect. Some entries that bind do so weakly or less than the wild type.

Protein sequences, listed by entry. Tags and fused reporters are not part of them. Lines headed by an entry give the natural chain unless they say otherwise; changes in a name come on top. Chains listed by the source or under a name are the forms on record and can include a tag or linker.
UniProt P23772: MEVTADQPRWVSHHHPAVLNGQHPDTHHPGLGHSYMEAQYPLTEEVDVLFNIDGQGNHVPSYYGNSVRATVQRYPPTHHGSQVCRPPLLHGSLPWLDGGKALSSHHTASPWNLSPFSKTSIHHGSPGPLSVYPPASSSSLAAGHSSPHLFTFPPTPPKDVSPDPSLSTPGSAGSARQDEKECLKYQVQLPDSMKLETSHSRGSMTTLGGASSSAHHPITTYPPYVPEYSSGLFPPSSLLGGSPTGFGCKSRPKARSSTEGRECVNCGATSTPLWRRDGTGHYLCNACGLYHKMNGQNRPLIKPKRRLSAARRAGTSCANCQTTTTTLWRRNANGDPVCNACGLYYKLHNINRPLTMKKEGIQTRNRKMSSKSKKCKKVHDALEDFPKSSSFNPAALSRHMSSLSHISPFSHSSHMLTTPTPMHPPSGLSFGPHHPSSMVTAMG
Flag-tagged Gata3 S/T-3A (phospho-impaired mutant) (P23772, form named): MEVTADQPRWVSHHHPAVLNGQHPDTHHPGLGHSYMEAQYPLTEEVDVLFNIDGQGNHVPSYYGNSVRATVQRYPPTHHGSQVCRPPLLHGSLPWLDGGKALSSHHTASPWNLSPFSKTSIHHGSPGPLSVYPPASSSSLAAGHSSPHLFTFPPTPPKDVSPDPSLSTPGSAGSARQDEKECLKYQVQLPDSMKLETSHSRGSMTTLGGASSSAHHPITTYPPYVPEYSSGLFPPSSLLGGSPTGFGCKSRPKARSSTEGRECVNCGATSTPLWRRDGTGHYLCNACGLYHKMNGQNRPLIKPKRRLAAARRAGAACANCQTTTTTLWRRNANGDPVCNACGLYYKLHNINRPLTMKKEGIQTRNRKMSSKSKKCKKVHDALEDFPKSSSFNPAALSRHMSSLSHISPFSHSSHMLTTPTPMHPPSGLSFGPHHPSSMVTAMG
Flag-tagged Gata3 S/T-3D (phospho-mimic mutant) (P23772, form named): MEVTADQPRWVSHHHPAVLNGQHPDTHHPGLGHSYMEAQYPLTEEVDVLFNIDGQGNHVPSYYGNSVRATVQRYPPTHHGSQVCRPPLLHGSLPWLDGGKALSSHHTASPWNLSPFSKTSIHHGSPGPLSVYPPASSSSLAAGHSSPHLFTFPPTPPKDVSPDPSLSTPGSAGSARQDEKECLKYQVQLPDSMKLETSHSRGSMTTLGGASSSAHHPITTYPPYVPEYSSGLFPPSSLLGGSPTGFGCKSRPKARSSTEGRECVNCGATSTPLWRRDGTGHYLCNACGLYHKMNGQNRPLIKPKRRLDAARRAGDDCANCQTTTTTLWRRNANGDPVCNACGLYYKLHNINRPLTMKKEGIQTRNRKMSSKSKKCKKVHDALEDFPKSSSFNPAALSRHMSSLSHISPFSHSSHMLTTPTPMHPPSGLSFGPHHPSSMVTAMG
UniProt Q6PDQ2: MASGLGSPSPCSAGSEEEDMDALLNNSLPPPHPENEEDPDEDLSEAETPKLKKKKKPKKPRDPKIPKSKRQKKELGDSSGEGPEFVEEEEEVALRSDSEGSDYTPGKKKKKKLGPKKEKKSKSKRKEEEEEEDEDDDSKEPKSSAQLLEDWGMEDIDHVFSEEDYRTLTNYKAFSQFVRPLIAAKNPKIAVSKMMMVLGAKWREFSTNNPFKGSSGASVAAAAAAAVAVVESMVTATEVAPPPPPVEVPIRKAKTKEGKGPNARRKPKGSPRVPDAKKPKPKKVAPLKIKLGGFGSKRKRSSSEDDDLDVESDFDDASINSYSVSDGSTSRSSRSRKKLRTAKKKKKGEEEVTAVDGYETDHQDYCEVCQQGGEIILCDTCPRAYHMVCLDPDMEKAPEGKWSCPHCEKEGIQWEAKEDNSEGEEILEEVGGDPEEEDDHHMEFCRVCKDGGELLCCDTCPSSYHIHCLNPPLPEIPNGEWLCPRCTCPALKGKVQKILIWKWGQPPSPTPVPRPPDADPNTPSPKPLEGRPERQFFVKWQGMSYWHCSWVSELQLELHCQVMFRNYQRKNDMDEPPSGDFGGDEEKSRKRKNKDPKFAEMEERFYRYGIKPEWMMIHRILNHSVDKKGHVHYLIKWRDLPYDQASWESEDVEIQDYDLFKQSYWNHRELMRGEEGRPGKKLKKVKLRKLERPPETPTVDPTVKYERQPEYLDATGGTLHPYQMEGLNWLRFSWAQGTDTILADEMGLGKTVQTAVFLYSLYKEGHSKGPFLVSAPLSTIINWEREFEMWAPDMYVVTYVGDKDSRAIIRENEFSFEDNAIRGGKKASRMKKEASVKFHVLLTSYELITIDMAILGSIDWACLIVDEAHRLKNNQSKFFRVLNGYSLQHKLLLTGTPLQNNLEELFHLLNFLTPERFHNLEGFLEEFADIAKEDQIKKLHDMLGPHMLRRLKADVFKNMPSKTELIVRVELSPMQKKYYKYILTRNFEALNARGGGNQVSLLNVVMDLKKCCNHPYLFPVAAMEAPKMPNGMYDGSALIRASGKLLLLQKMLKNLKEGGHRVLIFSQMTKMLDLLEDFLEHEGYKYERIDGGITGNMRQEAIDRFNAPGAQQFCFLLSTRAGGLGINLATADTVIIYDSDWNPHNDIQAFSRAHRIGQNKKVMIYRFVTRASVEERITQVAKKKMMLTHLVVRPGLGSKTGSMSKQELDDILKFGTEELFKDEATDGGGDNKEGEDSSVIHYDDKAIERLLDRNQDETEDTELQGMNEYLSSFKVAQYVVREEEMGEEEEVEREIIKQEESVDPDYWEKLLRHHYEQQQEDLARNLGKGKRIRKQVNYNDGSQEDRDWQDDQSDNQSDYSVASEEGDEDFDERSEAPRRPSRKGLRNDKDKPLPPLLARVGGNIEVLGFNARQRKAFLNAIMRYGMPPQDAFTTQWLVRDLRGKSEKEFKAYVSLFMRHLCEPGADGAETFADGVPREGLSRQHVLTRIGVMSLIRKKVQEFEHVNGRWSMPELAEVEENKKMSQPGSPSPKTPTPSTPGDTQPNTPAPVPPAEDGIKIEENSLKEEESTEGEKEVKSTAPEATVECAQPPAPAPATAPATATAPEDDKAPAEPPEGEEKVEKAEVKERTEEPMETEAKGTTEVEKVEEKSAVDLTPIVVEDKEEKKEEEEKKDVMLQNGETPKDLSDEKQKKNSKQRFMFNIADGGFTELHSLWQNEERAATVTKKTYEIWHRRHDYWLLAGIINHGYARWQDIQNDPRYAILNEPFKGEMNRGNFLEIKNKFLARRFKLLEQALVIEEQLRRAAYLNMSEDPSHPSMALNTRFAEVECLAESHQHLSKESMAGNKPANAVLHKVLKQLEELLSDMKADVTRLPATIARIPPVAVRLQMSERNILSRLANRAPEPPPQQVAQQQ
UniProt Q09472: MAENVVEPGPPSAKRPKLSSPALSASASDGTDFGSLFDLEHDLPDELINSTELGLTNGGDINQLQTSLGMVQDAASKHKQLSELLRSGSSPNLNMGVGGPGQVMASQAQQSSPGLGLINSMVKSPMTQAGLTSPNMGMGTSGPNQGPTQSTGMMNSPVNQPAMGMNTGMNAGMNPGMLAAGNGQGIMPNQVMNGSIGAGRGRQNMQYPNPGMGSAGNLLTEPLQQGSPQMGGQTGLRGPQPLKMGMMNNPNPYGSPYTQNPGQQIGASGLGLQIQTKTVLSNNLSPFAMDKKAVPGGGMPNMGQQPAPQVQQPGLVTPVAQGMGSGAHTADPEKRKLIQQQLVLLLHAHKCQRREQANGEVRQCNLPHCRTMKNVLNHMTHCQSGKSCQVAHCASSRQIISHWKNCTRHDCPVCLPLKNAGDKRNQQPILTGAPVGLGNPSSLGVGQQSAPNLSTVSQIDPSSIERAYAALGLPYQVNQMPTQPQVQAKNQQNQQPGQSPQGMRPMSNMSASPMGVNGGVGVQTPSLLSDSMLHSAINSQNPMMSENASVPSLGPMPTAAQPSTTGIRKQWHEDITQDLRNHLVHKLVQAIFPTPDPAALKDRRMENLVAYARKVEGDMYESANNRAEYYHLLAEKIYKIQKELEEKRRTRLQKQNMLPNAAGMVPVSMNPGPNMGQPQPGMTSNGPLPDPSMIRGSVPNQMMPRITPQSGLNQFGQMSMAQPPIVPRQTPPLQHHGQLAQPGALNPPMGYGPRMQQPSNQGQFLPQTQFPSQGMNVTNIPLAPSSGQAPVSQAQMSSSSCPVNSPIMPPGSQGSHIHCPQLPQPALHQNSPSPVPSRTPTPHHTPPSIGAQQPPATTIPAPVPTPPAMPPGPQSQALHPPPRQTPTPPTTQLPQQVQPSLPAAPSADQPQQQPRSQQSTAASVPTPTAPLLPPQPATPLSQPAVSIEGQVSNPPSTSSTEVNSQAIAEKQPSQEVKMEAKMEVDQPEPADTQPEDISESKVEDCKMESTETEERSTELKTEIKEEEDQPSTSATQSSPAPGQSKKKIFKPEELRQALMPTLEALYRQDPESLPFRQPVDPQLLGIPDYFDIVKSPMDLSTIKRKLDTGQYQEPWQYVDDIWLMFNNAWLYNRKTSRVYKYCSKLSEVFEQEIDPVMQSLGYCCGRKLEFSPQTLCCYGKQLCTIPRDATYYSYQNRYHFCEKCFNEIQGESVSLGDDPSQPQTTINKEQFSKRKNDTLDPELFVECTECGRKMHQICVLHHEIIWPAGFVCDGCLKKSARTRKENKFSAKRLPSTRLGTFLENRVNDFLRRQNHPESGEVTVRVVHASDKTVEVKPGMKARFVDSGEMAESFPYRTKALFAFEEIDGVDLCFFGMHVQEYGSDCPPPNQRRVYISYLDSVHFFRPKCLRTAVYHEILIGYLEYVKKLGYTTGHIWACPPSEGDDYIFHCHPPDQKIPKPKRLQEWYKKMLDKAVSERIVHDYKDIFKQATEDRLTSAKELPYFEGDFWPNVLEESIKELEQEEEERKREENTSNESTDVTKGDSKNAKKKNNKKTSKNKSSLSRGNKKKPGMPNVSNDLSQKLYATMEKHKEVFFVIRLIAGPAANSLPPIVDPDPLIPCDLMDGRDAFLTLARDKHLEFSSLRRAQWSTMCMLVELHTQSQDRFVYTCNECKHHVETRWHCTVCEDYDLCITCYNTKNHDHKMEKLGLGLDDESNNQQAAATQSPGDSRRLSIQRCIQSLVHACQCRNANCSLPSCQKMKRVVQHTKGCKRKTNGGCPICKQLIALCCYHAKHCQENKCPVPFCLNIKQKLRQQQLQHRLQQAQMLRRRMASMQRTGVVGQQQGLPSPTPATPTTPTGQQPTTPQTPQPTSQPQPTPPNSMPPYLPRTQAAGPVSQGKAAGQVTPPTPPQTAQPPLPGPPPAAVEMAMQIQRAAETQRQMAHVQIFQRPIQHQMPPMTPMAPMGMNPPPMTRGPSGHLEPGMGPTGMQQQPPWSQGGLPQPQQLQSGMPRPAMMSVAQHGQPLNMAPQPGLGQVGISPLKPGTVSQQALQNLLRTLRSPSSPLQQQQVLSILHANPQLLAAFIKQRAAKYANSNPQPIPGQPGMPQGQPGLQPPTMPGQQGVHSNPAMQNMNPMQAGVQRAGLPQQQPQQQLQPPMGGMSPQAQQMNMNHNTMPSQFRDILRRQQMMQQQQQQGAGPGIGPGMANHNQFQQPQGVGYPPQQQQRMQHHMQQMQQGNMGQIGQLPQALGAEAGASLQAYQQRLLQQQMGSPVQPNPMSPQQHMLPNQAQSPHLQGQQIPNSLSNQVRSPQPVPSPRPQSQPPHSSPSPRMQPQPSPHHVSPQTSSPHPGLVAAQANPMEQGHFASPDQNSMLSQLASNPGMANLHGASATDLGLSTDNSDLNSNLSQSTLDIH
UniProt P70288: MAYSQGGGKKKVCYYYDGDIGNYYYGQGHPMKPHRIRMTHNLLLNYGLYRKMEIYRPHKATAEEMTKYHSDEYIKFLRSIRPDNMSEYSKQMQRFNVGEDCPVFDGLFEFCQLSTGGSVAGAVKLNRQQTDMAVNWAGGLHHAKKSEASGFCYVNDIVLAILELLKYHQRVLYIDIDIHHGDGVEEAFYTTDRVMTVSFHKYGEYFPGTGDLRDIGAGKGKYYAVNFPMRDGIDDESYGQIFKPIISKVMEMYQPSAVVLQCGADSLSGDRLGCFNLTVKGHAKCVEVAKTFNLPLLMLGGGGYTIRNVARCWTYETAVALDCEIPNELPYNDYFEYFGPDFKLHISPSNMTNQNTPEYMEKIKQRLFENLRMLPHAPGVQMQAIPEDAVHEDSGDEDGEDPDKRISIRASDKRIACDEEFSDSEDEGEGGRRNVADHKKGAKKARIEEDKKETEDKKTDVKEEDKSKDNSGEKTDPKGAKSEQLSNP

Experiments:
[1] = target: Flag-tagged Gata3 S/T-3A (phospho-impaired mutant) (UniProt P23772); assay: co-IP; 293T cells co-transfected with Flag-tagged Gata3 (WT or mutant) and the Myc- or HA-tagged partner; RIPA lysates; IP with anti-Flag mAb, IB with anti-Myc or anti-HA
[2] = target: Flag-tagged Gata3 S/T-3D (phospho-mimic mutant) (UniProt P23772); assay: as above
[3] = target: Flag-tagged Gata3 wild type (UniProt P23772); assay: as above
[4] = target: Flag-tagged Gata3 wild type (UniProt P23772); assay: co-IP; total lysates of 293T cells expressing Flag-tagged Gata3 with myr-Akt1 or dn Akt1 were mixed with lysates of Myc-tagged Hdac2-expressing 293T cells; Hdac2 associated with Flag-Gata3 assessed by IP and IB
[5] = target: Flag-tagged Gata3 wild type (UniProt P23772); assay: co-IP; two-step affinity purification: total lysates of 293T cells expressing Flag-tagged Gata3 and Myc-tagged Hdac2, first IP with anti-Flag mAb, second IP with anti-Myc mAb; IB with anti-phospho-Gata3 Ab or anti-Flag mAb

Measured: binding

Myc-tagged Chd4 (from UniProt Q6PDQ2 1-1915)
binds: [1] | [2] | [3]

HA-tagged p300 (from UniProt Q09472 1-2414)
binds: [1] | [2] | [3]

Myc-tagged Hdac2 (histone deacetylase 2) (from UniProt P70288 1-488)
binds: [3] | [4] | [5]
